The source of these data is patent US20220233668A1 (VICTORIA LINK LTD., priority 2019, published 2022).

The nature of the data set: general procedure: Fmoc solid-phase peptide synthesis; HMPB ChemMatrix resin preloaded with the first Fmoc amino acid; diisopropylcarbodiimide / Oxyma. As to conditions: conjugation step.

As to V.Ox.FFRK.EIYSP, the conjugation yield is 84%.

With V.Ox.FFRK.NVFLP, the conjugation yield came out at 46%.

V.Ox.FFRK.NVYSP showed a conjugation yield of 77%.

V.Ox.FFRK.NVFSP registered a conjugation yield of 47%.

V.S.FFRK.NVYSP yielded a conjugation yield of 82%.

Regarding V.S.NVYLP, the conjugation yield came out at 73%.
